These are yes or no findings as the source states them, for the method shown. Some entries that bind do so weakly or less than the wild type.
How the values were obtained:
[1] = biological target: T1, REC114 1–145 (mouse) (UniProt Q9CWH4); test: two-hybrid; yeast two-hybrid of ANKRD31C (wild type or Glu-1831 to alanine) with REC114 1–145 (SI Appendix, Fig. S1B); expression of the fragments checked (Fig. S1C)
T1 sequence: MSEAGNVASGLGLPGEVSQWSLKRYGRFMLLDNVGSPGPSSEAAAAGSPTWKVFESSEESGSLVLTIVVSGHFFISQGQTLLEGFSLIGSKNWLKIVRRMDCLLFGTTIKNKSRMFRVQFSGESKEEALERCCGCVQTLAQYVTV

Protein sequences, listed by entry. Tags and fused reporters are not part of them. Lines headed by an entry give the natural chain unless they say otherwise; changes in a name come on top. Chains listed by the source or under a name are the forms on record and can include a tag or linker.
UniProt Q6NZQ4: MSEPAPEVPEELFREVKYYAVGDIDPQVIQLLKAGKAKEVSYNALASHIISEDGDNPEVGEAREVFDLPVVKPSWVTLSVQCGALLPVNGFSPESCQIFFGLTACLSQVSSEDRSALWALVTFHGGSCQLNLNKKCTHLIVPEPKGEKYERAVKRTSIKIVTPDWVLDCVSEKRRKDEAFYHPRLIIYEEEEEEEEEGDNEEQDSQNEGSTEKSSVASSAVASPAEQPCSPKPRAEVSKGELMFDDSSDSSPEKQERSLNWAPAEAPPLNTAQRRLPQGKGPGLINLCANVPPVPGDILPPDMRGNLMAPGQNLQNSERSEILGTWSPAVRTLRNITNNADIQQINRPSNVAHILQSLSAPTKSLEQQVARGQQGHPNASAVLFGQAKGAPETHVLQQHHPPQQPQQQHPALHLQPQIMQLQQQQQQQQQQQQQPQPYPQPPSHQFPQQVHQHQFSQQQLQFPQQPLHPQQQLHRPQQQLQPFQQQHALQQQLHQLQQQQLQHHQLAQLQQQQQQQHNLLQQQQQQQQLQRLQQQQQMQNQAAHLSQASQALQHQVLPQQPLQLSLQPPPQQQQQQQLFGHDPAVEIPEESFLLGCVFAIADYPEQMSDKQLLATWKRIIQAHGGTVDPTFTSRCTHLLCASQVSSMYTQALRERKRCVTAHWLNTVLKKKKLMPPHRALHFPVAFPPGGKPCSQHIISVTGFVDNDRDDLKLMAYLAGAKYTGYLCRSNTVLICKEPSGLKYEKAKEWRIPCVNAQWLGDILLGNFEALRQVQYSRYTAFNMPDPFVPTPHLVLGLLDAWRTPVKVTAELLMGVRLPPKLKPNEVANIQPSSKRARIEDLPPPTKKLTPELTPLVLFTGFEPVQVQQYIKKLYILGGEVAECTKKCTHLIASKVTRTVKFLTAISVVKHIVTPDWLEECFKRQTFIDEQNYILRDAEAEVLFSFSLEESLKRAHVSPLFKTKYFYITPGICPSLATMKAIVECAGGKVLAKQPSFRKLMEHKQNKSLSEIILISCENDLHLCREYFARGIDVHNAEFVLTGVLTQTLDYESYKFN
UniProt A0A140LI88: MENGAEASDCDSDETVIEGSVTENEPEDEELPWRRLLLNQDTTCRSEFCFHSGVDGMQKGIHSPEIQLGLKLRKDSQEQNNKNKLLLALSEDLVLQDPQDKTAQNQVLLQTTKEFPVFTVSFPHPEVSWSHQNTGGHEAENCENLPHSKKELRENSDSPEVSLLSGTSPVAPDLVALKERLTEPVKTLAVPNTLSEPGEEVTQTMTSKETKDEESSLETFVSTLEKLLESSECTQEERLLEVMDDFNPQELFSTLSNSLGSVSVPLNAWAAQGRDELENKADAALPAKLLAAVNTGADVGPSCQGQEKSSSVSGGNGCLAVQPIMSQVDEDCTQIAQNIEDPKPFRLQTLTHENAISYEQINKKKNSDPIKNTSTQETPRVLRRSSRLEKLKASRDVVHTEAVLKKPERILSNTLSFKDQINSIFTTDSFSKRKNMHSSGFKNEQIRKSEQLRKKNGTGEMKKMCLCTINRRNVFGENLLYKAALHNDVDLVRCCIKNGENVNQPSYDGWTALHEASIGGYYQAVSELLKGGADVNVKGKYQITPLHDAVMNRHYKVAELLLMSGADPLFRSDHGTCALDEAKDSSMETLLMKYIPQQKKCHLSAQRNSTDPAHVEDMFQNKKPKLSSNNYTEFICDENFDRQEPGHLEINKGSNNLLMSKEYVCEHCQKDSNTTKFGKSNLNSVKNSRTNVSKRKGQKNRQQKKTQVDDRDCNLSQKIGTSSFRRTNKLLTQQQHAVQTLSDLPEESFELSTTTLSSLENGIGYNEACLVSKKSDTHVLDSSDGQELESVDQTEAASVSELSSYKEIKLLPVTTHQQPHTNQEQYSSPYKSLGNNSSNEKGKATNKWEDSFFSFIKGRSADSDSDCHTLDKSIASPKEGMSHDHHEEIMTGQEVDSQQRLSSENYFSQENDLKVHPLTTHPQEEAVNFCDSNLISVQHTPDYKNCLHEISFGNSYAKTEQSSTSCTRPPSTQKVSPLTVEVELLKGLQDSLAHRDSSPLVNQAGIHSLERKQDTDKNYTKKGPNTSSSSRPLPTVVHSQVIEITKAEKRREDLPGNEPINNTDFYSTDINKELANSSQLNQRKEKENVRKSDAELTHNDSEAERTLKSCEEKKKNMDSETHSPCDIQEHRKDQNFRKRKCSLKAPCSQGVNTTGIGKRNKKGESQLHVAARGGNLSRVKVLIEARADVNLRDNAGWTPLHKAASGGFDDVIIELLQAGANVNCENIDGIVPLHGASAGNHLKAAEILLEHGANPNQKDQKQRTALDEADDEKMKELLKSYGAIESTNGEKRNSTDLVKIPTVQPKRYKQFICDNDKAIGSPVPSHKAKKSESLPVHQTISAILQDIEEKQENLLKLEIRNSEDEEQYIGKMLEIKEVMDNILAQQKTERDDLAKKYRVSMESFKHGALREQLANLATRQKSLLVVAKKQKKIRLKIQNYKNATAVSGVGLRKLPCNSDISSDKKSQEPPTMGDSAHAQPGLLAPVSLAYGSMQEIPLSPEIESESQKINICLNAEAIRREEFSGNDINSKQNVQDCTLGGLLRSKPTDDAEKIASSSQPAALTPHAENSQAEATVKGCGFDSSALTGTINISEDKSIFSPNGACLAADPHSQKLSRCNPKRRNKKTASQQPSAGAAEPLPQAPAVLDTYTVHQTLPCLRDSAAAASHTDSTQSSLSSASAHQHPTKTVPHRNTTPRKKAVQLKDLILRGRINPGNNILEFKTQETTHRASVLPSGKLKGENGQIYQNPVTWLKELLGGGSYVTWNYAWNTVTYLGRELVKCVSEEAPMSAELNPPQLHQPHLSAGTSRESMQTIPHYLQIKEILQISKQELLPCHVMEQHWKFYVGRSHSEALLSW
ANKRD31-EA, full-length ANKRD31 with alanine substituted for Glu-1831 (A0A140LI88, form named): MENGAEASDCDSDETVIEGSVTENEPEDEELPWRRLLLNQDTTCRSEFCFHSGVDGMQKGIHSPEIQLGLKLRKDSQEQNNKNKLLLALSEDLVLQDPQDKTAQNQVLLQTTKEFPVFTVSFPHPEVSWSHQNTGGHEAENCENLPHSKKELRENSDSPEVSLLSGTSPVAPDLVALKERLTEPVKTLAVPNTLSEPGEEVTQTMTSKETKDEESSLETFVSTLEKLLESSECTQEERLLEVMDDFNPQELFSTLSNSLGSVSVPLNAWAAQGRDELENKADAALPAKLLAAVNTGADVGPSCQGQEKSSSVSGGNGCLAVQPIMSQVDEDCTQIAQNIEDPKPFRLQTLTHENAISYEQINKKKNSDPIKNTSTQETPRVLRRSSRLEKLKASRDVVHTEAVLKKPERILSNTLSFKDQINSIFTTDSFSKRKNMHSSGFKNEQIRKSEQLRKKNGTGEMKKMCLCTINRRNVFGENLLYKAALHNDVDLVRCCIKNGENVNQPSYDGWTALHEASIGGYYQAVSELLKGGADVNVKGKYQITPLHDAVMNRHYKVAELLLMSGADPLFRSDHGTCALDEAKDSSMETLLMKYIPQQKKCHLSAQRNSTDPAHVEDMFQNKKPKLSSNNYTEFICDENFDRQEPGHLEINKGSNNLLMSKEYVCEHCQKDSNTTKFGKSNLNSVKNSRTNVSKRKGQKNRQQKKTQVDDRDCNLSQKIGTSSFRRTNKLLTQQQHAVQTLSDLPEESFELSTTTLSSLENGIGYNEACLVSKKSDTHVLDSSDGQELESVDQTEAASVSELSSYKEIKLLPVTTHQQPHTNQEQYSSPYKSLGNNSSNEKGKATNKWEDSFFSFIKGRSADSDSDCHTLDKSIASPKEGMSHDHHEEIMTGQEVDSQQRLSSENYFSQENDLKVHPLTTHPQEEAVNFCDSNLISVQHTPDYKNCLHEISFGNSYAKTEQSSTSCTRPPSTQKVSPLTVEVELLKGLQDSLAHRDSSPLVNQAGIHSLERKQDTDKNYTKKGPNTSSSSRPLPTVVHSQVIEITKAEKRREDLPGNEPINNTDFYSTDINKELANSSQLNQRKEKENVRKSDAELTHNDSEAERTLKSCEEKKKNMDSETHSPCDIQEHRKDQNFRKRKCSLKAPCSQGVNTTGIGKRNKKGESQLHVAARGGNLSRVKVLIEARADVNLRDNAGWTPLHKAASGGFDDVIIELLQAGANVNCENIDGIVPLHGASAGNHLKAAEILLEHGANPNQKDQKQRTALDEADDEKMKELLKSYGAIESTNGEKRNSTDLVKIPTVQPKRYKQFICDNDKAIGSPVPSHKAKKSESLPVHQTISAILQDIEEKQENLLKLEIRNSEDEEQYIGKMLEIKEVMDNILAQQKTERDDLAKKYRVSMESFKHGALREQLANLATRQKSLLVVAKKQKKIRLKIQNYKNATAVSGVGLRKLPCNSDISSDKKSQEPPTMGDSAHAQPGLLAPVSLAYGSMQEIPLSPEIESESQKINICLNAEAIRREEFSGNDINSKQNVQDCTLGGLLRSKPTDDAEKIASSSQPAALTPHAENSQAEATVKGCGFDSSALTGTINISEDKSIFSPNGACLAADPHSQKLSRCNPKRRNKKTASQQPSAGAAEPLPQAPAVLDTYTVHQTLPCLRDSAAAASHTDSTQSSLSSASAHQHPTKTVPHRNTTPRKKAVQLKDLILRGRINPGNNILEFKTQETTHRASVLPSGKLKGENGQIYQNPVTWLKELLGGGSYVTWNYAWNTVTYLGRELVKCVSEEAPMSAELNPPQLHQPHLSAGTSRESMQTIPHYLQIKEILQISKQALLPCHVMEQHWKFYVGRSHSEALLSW

[2] = biological target: T2, MEI1 (UniProt Q9D4I2); test: two-hybrid; yeast two-hybrid of full-length ANKRD31 (wild type, EA, ΔC) as Gal4 AD and BD fusions with full-length or parts of REC114, MEI1, PTIP, ZMYM3; selection by amino acid dropouts and aureobasidin at moderate (+) and high (++) stringency
T2 sequence: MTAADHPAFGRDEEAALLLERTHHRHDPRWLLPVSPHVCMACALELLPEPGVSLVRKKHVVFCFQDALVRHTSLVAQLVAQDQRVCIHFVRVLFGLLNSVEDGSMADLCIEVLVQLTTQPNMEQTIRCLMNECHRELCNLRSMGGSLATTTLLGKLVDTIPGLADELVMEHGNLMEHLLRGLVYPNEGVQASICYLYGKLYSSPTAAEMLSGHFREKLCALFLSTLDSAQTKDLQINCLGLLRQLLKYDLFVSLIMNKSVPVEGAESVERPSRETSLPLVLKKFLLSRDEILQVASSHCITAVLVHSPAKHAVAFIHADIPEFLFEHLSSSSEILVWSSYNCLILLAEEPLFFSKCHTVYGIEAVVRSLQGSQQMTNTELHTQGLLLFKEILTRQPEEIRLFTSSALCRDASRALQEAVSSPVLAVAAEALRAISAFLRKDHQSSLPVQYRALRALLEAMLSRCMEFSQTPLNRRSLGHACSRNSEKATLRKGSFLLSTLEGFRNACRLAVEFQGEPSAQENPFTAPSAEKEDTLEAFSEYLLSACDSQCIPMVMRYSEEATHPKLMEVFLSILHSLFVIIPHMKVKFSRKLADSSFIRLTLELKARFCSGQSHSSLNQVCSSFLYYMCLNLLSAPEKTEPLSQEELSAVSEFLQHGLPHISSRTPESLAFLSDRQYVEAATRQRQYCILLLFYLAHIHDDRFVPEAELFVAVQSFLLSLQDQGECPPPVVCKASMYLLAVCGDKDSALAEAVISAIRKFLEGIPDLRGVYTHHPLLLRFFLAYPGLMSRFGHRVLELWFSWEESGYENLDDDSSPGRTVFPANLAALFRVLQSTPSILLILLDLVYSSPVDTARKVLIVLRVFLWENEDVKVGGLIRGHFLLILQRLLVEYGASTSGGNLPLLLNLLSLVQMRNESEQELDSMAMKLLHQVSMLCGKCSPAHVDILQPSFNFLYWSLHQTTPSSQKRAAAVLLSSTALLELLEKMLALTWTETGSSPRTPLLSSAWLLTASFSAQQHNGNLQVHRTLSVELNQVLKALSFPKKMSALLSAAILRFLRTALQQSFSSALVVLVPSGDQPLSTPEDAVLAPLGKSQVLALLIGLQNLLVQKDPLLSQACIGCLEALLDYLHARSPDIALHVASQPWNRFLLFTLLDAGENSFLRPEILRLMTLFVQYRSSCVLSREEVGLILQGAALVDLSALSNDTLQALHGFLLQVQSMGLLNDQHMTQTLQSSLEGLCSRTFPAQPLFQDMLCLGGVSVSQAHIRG

[3] = biological target: PTIP (UniProt Q6NZQ4); test: as above
[4] = biological target: T3, ZMYM3 (UniProt Q9JLM4); test: as above
T3 sequence: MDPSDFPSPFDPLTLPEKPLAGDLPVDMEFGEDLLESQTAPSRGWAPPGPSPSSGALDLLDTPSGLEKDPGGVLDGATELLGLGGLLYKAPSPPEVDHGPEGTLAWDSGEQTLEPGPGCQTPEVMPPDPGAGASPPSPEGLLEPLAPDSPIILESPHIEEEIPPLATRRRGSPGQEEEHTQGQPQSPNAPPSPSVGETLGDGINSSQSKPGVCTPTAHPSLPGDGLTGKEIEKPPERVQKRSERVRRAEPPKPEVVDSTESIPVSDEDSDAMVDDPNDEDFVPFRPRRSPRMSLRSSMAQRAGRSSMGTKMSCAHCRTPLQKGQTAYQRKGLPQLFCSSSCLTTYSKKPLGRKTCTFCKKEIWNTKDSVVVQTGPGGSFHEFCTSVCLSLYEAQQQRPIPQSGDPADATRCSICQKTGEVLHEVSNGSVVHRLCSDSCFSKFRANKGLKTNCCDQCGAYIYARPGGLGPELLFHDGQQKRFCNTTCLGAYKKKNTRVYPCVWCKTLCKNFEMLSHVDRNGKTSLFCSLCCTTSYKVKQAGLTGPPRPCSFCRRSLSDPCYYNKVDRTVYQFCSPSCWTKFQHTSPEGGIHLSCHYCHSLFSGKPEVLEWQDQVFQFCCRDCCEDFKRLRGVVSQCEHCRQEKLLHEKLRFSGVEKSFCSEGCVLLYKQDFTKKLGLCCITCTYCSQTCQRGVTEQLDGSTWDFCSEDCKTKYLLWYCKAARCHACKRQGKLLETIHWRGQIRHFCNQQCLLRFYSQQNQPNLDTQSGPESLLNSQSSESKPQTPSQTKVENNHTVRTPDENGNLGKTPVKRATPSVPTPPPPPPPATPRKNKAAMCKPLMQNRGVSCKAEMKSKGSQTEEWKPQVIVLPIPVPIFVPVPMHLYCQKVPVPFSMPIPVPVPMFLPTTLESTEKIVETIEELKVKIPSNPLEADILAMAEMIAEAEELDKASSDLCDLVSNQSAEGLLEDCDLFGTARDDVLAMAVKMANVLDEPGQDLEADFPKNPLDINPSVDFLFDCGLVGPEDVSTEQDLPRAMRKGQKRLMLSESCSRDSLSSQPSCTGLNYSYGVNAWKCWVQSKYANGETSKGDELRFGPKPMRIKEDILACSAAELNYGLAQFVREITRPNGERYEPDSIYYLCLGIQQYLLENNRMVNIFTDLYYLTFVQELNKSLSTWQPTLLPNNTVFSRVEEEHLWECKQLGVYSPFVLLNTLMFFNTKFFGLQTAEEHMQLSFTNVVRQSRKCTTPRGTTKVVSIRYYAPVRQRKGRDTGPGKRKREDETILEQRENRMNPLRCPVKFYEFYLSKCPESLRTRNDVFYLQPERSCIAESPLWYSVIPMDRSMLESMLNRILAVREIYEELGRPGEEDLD

Row | binding [1] | binding [2] | binding [3] | binding [4] | Substance
1 | binds |  |  |  | ANKRD31C, ANKRD31 residues 1808–1857 (from UniProt A0A140LI88 1808-1857) (domain or fragment)
2 |  | binds | binds | binds | ANKRD31-EA, full-length ANKRD31 with alanine substituted for Glu-1831 (from UniProt A0A140LI88 1-1857)
3 |  | binds | binds | binds | ANKRD31 (Ankyrin Repeat Domain Containing 31), full-length wild type (from UniProt A0A140LI88 1-1857)

From publication PMC10666023
